PubChem BioAssay AID743121 – NCATS – 2013
This is a random part of about 26,000 reagents. 167 of all reagents (0.63%) count as active. 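Calls are per gene from RSA p-values that are not deposited; an individual active-marked siRNA can sensitise only weakly.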 A number with no mark means an inactive call. The numbers tell different reagents against one gene apart. No sequences are given here.

Purpose: 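Knock-downs that sensitise breast cancer cells to camptothecin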 (primary screen)
Cells: MDA-MB-231 cells, a human breast cancer line
Reagents: single siRNA against human genes, 20 nM siRNA (0.8 pmol per well)
Duration: 120 h (drug added 48 h after transfection, read 72 h later)
Challenge: camptothecin 20 nM (about EC30) for 72 h; vehicle 0.1% DMSO in parallel plates
Detection: 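CellTiter-Glo ATP signal, scaled to control siRNA as percent viability; sensitisation given as log2 of untreated divided by camptothecin-treated viability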
Scale: log2 vehicle/camptothecin viability: higher = stronger sensitisation to camptothecin; viability with camptothecin and viability without drug: higher = more viable cells
Hit rule: 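Active genes have an RSA gene-level p-value below 0.001, computed from the ratios of their separate siRNAs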

Gene | reagent | log2 vehicle/camptothecin viability | viability with camptothecin (% of control) | viability without drug (% of control)
PLXDC2 (GeneID 84898) | 1 | -0.344 | 58.9 | 46.4
PLXDC2 (GeneID 84898) | 2 | -0.0659 | 90.3 | 86.2
PLXDC2 (GeneID 84898) | 3 | -0.453 | 117 | 85.5
MINK1 (GeneID 50488) | 1 | -0.403 | 94.3 | 71.3
MINK1 (GeneID 50488) | 2 | -0.234 | 44.3 | 37.6
MINK1 (GeneID 50488) | 3 | -0.591 | 81.2 | 53.9
MINK1 (GeneID 50488) | 4 | -0.322 | 131 | 105
TRIM25 (GeneID 7706) | 1 | -0.268 | 122 | 101
TRIM25 (GeneID 7706) | 2 | 0.363 | 37.1 | 47.7
TRIM25 (GeneID 7706) | 3 | -0.32 | 31 | 24.9
TRIM25 (GeneID 7706) | 4 | -0.183 | 95.7 | 84.3
AKR1B10 (GeneID 57016) | 1 | 0.125 | 61.3 | 66.8
AKR1B10 (GeneID 57016) | 2 | -0.356 | 103 | 80.7
AKR1B10 (GeneID 57016) | 3 | -0.237 | 85.2 | 72.3
AKR1B10 (GeneID 57016) | 4 | 0.354 | 41.4 | 52.9
NUP153 (GeneID 9972) | 1 | 0.117 | 31 | 33.6
NUP153 (GeneID 9972) | 2 | 0.83 | 11.5 | 20.4
NUP153 (GeneID 9972) | 3 | 0.312 | 42.4 | 52.6
CDKN2C (GeneID 1031) | 1 | -0.106 | 77.5 | 72
CDKN2C (GeneID 1031) | 2 | -0.411 | 116 | 87.1
CDKN2C (GeneID 1031) | 3 | -0.18 | 114 | 100
CDKN2C (GeneID 1031) | 4 | -0.0918 | 104 | 97.7
ANKRD30A (GeneID 91074) | 1 | -0.478 | 44.6 | 32
ANKRD30A (GeneID 91074) | 2 | -0.177 | 115 | 102
ANKRD30A (GeneID 91074) | 3 | 0.272 | 67.2 | 81.1
ANKRD30A (GeneID 91074) | 4 | -0.375 | 61.7 | 47.6
CUL3 (GeneID 8452) | 1 | -0.1 | 38.1 | 35.5
CUL3 (GeneID 8452) | 2 | 0.199 | 71.4 | 82
CUL3 (GeneID 8452) | 3 | -0.416 | 91.3 | 68.4
CUL3 (GeneID 8452) | 4 | -0.268 | 110 | 91.4
RAB32 (GeneID 10981) | 1 | -0.169 | 111 | 98.3
RAB32 (GeneID 10981) | 2 | -0.34 | 69.4 | 54.8
RAB32 (GeneID 10981) | 3 | -0.162 | 112 | 100
RAB32 (GeneID 10981) | 4 | -0.576 | 76.2 | 51.1
CLCN6 (GeneID 1185) | 1 | 0.0547 | 106 | 110
CLCN6 (GeneID 1185) | 2 | -0.0285 | 87.3 | 85.6
CLCN6 (GeneID 1185) | 3 | -0.0518 | 65.5 | 63.2
CLCN6 (GeneID 1185) | 4 | -0.295 | 63.6 | 51.8
CALCR (GeneID 799) | 1 | -0.0186 | 94.9 | 93.7
CALCR (GeneID 799) | 2 | -0.108 | 58.3 | 54.1
CALCR (GeneID 799) | 3 | -0.595 | 82.8 | 54.8
CALCR (GeneID 799) | 4 | -0.27 | 86.1 | 71.4
CLUH (GeneID 23277) | 1 | 0.486 | 56.2 | 78.8
CLUH (GeneID 23277) | 2 | 0.293 | 54 | 66.2
CLUH (GeneID 23277) | 3 | -0.199 | 61.7 | 53.8
CLUH (GeneID 23277) | 4 | -0.623 | 3.05 | 1.98
